Data on one molecule can be found in article doi:10.1101/2024.01.05.574312.

The target in this experiment is T1, Ubp10 (in epitope-tagged backgrounds, ChIP-CoIP; also as found in the Cdc9 proteomic analysis) (S. cerevisiae) (UniProt P53874).
T1 sequence: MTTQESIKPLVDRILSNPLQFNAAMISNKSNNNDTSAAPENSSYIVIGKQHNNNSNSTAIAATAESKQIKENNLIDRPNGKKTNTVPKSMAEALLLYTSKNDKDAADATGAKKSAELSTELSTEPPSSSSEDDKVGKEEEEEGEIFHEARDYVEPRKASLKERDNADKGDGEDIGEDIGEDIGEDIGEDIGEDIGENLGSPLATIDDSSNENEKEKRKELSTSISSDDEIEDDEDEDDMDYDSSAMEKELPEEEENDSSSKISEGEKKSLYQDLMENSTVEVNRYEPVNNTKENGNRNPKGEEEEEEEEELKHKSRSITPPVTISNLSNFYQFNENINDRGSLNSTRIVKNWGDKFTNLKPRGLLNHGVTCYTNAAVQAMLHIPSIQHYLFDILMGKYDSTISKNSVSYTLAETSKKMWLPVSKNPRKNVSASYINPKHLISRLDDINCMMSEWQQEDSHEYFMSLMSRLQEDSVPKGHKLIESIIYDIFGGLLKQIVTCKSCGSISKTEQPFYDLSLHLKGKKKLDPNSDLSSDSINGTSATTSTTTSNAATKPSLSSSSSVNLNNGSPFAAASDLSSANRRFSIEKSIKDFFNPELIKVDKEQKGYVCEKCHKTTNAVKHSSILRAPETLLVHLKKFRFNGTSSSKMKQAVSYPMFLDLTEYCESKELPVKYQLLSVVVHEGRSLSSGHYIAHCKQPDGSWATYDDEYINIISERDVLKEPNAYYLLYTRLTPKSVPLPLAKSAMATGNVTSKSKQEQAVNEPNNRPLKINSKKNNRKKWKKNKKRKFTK
The experiment in a line: co-IP.

Results are given in words; binding and its absence hold for the method and conditions named. In cells and extracts the contact can be indirect. Some entries that bind do so weakly or less than the wild type. Sequences can lack the tags named with a protein.

B1: Pol3, catalytic subunit of Polδ (in an epitope-tagged background, ChIP-CoIP) (enzyme, UniProt P15436 1-1097)
chain: MSEKRSLPMVDVKIDDEDTPQLEKKIKRQSIDHGVGSEPVSTIEIIPSDSFRKYNSQGFKAKDTDLMGTQLESTFEQELSQMEHDMADQEEHDLSSFERKKLPTDFDPSLYDISFQQIDAEQSVLNGIKDENTSTVVRFFGVTSEGHSVLCNVTGFKNYLYVPAPNSSDANDQEQINKFVHYLNETFDHAIDSIEVVSKQSIWGYSGDTKLPFWKIYVTYPHMVNKLRTAFERGHLSFNSWFSNGTTTYDNIAYTLRLMVDCGIVGMSWITLPKGKYSMIEPNNRVSSCQLEVSINYRNLIAHPAEGDWSHTAPLRIMSFDIECAGRIGVFPEPEYDPVIQIANVVSIAGAKKPFIRNVFTLNTCSPITGSMIFSHATEEEMLSNWRNFIIKVDPDVIIGYNTTNFDIPYLLNRAKALKVNDFPYFGRLKTVKQEIKESVFSSKAYGTRETKNVNIDGRLQLDLLQFIQREYKLRSYTLNAVSAHFLGEQKEDVHYSIISDLQNGDSETRRRLAVYCLKDAYLPLRLMEKLMALVNYTEMARVTGVPFSYLLARGQQIKVVSQLFRKCLEIDTVIPNMQSQASDDQYEGATVIEPIRGYYDVPIATLDFNSLYPSIMMAHNLCYTTLCNKATVERLNLKIDEDYVITPNGDYFVTTKRRRGILPIILDELISARKRAKKDLRDEKDPFKRDVLNGRQLALKISANSVYGFTGATVGKLPCLAISSSVTAYGRTMILKTKTAVQEKYCIKNGYKHDAVVVYGDTDSVMVKFGTTDLKEAMDLGTEAAKYVSTLFKHPINLEFEKAYFPYLLINKKRYAGLFWTNPDKFDKLDQKGLASVRRDSCSLVSIVMNKVLKKILIERNVDGALAFVRETINDILHNRVDISKLIISKTLAPNYTNPQPHAVLAERMKRREGVGPNVGDRVDYVIIGGNDKLYNRAEDPLFVLENNIQVDSRYYLTNQLQNPIISIVAPIIGDKQANGMFVVKSIKINTGSQKGGLMSFIKKVEACKSCKGPLRKGEGPLCSNCLARSGELYIKALYDVRDLEEKYSRLWTQCQRCAGNLHSEVLCSNKNCDIFYMRVKVKKELQEKVEQLSKW
Consider B1, for which the binding entry is reported as “binds”.
